No constants are given. Whether binding was seen depends on the method and setting. Binding seen in cells or lysates may run through a third protein. A yes stands for co-enrichment or nearness to the bait. Other partners may have been found.

By UniProt entry, the sequences of proteins in these tests, tags left out.
UniProt P51532: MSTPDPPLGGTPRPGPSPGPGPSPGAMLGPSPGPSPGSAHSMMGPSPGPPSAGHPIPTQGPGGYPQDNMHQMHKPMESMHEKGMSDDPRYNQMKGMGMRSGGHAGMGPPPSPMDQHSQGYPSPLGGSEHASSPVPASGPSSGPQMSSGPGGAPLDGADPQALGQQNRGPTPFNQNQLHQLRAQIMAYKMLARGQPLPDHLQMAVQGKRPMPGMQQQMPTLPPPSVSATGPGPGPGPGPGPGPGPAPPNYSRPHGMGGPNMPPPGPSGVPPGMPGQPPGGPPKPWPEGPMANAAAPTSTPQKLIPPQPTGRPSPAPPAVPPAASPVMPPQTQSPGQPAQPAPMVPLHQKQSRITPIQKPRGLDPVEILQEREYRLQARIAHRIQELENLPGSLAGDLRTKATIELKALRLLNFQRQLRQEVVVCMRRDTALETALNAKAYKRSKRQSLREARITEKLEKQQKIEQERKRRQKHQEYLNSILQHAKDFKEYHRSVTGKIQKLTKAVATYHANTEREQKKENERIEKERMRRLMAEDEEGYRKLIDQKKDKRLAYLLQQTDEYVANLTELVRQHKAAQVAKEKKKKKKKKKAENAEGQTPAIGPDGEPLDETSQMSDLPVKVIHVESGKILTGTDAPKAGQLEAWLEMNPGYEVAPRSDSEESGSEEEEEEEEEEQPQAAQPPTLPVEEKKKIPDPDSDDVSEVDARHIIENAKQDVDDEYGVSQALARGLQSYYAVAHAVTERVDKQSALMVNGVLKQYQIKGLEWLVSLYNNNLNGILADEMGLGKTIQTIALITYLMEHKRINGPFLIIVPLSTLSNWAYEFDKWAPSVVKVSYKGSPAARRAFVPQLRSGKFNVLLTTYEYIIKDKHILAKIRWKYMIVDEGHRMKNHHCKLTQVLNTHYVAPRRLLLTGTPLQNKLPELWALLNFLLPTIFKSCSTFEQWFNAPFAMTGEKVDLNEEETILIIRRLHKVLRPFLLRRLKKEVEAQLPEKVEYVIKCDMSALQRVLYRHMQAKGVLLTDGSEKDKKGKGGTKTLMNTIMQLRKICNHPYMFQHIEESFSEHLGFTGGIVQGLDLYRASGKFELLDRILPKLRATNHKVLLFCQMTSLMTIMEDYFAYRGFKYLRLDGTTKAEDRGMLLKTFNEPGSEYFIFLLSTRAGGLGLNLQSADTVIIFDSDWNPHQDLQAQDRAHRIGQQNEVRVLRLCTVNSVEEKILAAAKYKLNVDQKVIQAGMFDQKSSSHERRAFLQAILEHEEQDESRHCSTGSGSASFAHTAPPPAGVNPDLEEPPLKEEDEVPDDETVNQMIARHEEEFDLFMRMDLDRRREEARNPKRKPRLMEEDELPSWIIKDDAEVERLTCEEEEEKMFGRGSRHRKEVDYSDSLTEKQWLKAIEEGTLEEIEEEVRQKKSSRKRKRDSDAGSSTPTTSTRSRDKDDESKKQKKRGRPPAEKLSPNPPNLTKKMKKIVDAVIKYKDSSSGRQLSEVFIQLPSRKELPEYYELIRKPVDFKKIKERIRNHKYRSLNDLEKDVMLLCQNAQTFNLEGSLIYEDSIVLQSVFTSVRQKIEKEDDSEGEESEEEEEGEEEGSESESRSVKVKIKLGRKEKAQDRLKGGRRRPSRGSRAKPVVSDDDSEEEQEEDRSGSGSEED

The record followed here is article PMC12455829.

To fix the notation:
B1: CDYL (protein, UniProt Q9Y232 1-598)
chain: MTFQASHRSAWGKSRKKNWQYEGPTQKLFLKRNNVSAPDGPSDPSISVSSEQSGAQQPPALQVERIVDKRKNKKGKTEYLVRWKGYDSEDDTWEPEQHLVNCEEYIHDFNRRHTEKQKESTLTRTNRTSPNNARKQISRSTNSNFSKTSPKALVIGKDHESKNSQLFAASQKFRKNTAPSLSSRKNMDLAKSGIKILVPKSPVKSRTAVDGFQSESPEKLDPVEQGQEDTVAPEVAAEKPVGALLGPGAERARMGSRPRIHPLVPQVPGPVTAAMATGLAVNGKGTSPFMDALTANGTTNIQTSVTGVTASKRKFIDDRRDQPFDKRLRFSVRQTESAYRYRDIVVRKQDGFTHILLSTKSSENNSLNPEVMREVQSALSTAAADDSKLVLLSAVGSVFCCGLDFIYFIRRLTDDRKRESTKMAEAIRNFVNTFIQFKKPIIVAVNGPAIGLGASILPLCDVVWANEKAWFQTPYTTFGQSPDGCSTVMFPKIMGGASANEMLLSGRKLTAQEACGKGLVSQVFWPGTFTQEVMVRIKELASCNPVVLEESKALVRCNMKMELEQANERECEVLKKIWGSAQGMDSMLKYLQRKIDEF
B2: CAT (protein, UniProt P04040 1-527)
chain: MADSRDPASDQMQHWKEQRAAQKADVLTTGAGNPVGDKLNVITVGPRGPLLVQDVVFTDEMAHFDRERIPERVVHAKGAGAFGYFEVTHDITKYSKAKVFEHIGKKTPIAVRFSTVAGESGSADTVRDPRGFAVKFYTEDGNWDLVGNNTPIFFIRDPILFPSFIHSQKRNPQTHLKDPDMVWDFWSLRPESLHQVSFLFSDRGIPDGHRHMNGYGSHTFKLVNANGEAVYCKFHYKTDQGIKNLSVEDAARLSQEDPDYGIRDLFNAIATGKYPSWTFYIQVMTFNQAETFPFNPFDLTKVWPHKDYPLIPVGKLVLNRNPVNYFAEVEQIAFDPSNMPPGIEASPDKMLQGRLFAYPDTHRHRLGPNYLHIPVNCPYRARVANYQRDGPMCMQDNQGGAPNYYPNSFGAPEQQPSALEHSIQYSGEVRRFNTANDDNVTQVRAFYVNVLNEEQRKRLCENIAGHLKDAQIFIQKKAVKNFTEVHPDYGSHIQALLDKYNAEKPKNAIHTFVQSGSHLAAREKANL
B3: FOSL2 (protein, UniProt P15408 1-326)
chain: MYQDYPGNFDTSSRGSSGSPAHAESYSSGGGGQQKFRVDMPGSGSAFIPTINAITTSQDLQWMVQPTVITSMSNPYPRSHPYSPLPGLASVPGHMALPRPGVIKTIGTTVGRRRRDEQLSPEEEEKRRIRRERNKLAAAKCRNRRRELTEKLQAETEELEEEKSGLQKEIAELQKEKEKLEFMLVAHGPVCKISPEERRSPPAPGLQPMRSGGGSVGAVVVKQEPLEEDSPSSSSAGLDKAQRSVIKPISIAGGFYGEEPLHTPIVVTSTPAVTPGTSNLVFTYPSVLEQESPASPSESCSKAHRRSSSSGDQSSDSLNSPTLLAL
B4: FOXP4 (protein, UniProt Q8IVH2 1-680)
chain: MMVESASETIRSAPSGQNGVGSLSGQADGSSGGATGTTASGTGREVTTGADSNGEMSPAELLHFQQQQALQVARQFLLQQASGLSSPGNNDSKQSASAVQVPVSVAMMSPQMLTPQQMQQILSPPQLQALLQQQQALMLQQLQEYYKKQQEQLHLQLLTQQQAGKPQPKEALGNKQLAFQQQLLQMQQLQQQHLLNLQRQGLVSLQPNQASGPLQTLPQAAVCPTDLPQLWKGEGAPGQPAEDSVKQEGLDLTGTAATATSFAAPPKVSPPLSHHTLPNGQPTVLTSRRDSSSHEETPGSHPLYGHGECKWPGCETLCEDLGQFIKHLNTEHALDDRSTAQCRVQMQVVQQLEIQLAKESERLQAMMAHLHMRPSEPKPFSQPLNPVPGSSSFSKVTVSAADSFPDGLVHPPTSAAAPVTPLRPPGLGSASLHGGGPARRRSSDKFCSPISSELAQNHEFYKNADVRPPFTYASLIRQAILETPDRQLTLNEIYNWFTRMFAYFRRNTATWKNAVRHNLSLHKCFVRVENVKGAVWTVDEREYQKRRPPKMTGSPTLVKNMISGLSYGALNASYQAALAESSFPLLNSPGMLNPGSASSLLPLSHDDVGAPVEPLPSNGSSSPPRLSPPQYSHQVQVKEEPAEAEEDRQPGPPLGAPNPSASGPPEDRDLEEELPGEELS
B5: FOXP1 (protein, UniProt Q9H334 1-677)
chain: MMQESGTETKSNGSAIQNGSGGSNHLLECGGLREGRSNGETPAVDIGAADLAHAQQQQQQALQVARQLLLQQQQQQQVSGLKSPKRNDKQPALQVPVSVAMMTPQVITPQQMQQILQQQVLSPQQLQVLLQQQQALMLQQQQLQEFYKKQQEQLQLQLLQQQHAGKQPKEQQQVATQQLAFQQQLLQMQQLQQQHLLSLQRQGLLTIQPGQPALPLQPLAQGMIPTELQQLWKEVTSAHTAEETTGNNHSSLDLTTTCVSSSAPSKTSLIMNPHASTNGQLSVHTPKRESLSHEEHPHSHPLYGHGVCKWPGCEAVCEDFQSFLKHLNSEHALDDRSTAQCRVQMQVVQQLELQLAKDKERLQAMMTHLHVKSTEPKAAPQPLNLVSSVTLSKSASEASPQSLPHTPTTPTAPLTPVTQGPSVITTTSMHTVGPIRRRYSDKYNVPISSADIAQNQEFYKNAEVRPPFTYASLIRQAILESPEKQLTLNEIYNWFTRMFAYFRRNAATWKNAVRHNLSLHKCFVRVENVKGAVWTVDEVEFQKRRPQKISGNPSLIKNMQSSHAYCTPLNAALQASMAENSIPLYTTASMGNPTLGNLASAIREELNGAMEHTNSNESDSSPGRSPMQAVHPVHVKEEPLDPEEAEGPLSLVTTANHSPDFDHDRDYEDEPVNEDME
B6: ZNF609 (protein, UniProt O15014 1-1411)
chain: MSLSSGASGGKGVDANPVETYDSGDEWDIGVGNLIIDLDADLEKDQQKLEMSGSKEVGIPAPNAVATLPDNIKFVTPVPGPQGKEGKSKSKRSKSGKDTSKPTPGTSLFTPSEGAASKKEVQGRSGDGANAGGLVAAIAPKGSEKAAKASRSVAGSKKEKENSSSKSKKERSEGVGTCSEKDPGVLQPVPLGGRGGQYDGSAGVDTGAVEPLGSIAIEPGAALNPLGTKPEPEEGENECRLLKKVKSEKMESPVSTPAVLPIHLLVPVVNNDISSPCEQIMVRTRSVGVNTCDVALATEPECLGPCEPGTSVNLEGIVWQETEDGMLVVNVTWRNKTYVGTLLDCTRHDWAPPRFCDSPTSDLEMRNGRGRGKRMRPNSNTPVNETATASDSKGTSNSSKTRAGANSKGRRGSQNSSEHRPPASSTSEDVKASPSSANKRKNKPLSDMELNSSSEDSKGSKRVRTNSMGSATGPLPGTKVEPTVLDRNCPSPVLIDCPHPNCNKKYKHINGLKYHQAHAHTDDDSKPEADGDSEYGEEPILHADLGSCNGASVSQKGSLSPARSATPKVRLVEPHSPSPSSKFSTKGLCKKKLSGEGDTDLGALSNDGSDDGPSVMDETSNDAFDSLERKCMEKEKCKKPSSLKPEKIPSKSLKSARPIAPAIPPQQIYTFQTATFTAASPGSSSGLTATVAQAMPNSPQLKPIQPKPTVMGEPFTVNPALTPAKDKKKKDKKKKESSKELESPLTPGKVCRAEEGKSPFRESSGDGMKMEGLLNGSSDPHQSRLASIKAEADKIYSFTDNAPSPSIGGSSRLENTTPTQPLTPLHVVTQNGAEASSVKTNSPAYSDISDAGEDGEGKVDSVKSKDAEQLVKEGAKKTLFPPQPQSKDSPYYQGFESYYSPSYAQSSPGALNPSSQAGVESQALKTKRDEEPESIEGKVKNDICEEKKPELSSSSQQPSVIQQRPNMYMQSLYYNQYAYVPPYGYSDQSYHTHLLSTNTAYRQQYEEQQKRQSLEQQQRGVDKKAEMGLKEREAALKEEWKQKPSIPPTLTKAPSLTDLVKSGPGKAKEPGADPAKSVIIPKLDDSSKLPGQAPEGLKVKLSDASHLSKEASEAKTGAECGRQAEMDPILWYRQEAEPRMWTYVYPAKYSDIKSEDERWKEERDRKLKEERSRSKDSVPKEDGKESTSSDCKLPTSEESRLGSKEPRPSVHVPVSSPLTQHQSYIPYMHGYSYSQSYDPNHPSYRSMPAVMMQNYPGSYLPSSYSFSPYGSKVSGGEDADKARASPSVTCKSSSESKALDILQQHASHYKSKSPTISDKTSQERDRGGCGVVGGGGSCSSVGGASGGERSVDRPRTSPSQRLMSTHHHHHHLGYSLLPAQYNLPYAAGLSSTAIVASQQGSTPSLYPPPRR
B7: ZNF687 (protein, UniProt Q8N1G0 1-1237)
chain: MGDMKTPDFDDLLAAFDIPDIDANEAIHSGPEENEGPGGPGKPEPGVGSESEDTAAASAGDGPGVPAQASDHGLPPPDISVVSVIVKNTVCPEQSEALAGGSAGDGAQAAGVTKEGPVGPHRMQNGFGSPEPSLPGTPHSPAPPSGGTWKEKGMEGKTPLDLFAHFGPEPGDHSDPLPPSAPSPTREGALTPPPFPSSFELAQENGPGMQPPVSSPPLGALKQESCSPHHPQVLAQQGSGSSPKATDIPASASPPPVAGVPFFKQSPGHQSPLASPKVPVCQPLKEEDDDEGPVDKSSPGSPQSPSSGAEAADEDSNDSPASSSSRPLKVRIKTIKTSCGNITRTVTQVPSDPDPPAPLAEGAFLAEASLLKLSPATPTSEGPKVVSVQLGDGTRLKGTVLPVATIQNASTAMLMAASVARKAVVLPGGTATSPKMIAKNVLGLVPQALPKADGRAGLGTGGQKVNGASVVMVQPSKTATGPSTGGGTVISRTQSSLVEAFNKILNSKNLLPAYRPNLSPPAEAGLALPPTGYRCLECGDAFSLEKSLARHYDRRSMRIEVTCNHCARRLVFFNKCSLLLHAREHKDKGLVMQCSHLVMRPVALDQMVGQPDITPLLPVAVPPVSGPLALPALGKGEGAITSSAITTVAAEAPVLPLSTEPPAAPATSAYTCFRCLECKEQCRDKAGMAAHFQQLGPPAPGATSNVCPTCPMMLPNRCSFSAHQRMHKNRPPHVCPECGGNFLQANFQTHLREACLHVSRRVGYRCPSCSVVFGGVNSIKSHIQTSHCEVFHKCPICPMAFKSGPSAHAHLYSQHPSFQTQQAKLIYKCAMCDTVFTHKPLLSSHFDQHLLPQRVSVFKCPSCPLLFAQKRTMLEHLKNTHQSGRLEETAGKGAGGALLTPKTEPEELAVSQGGAAPATEESSSSSEEEEVPSSPEPPRPAKRPRRELGSKGLKGGGGGPGGWTCGLCHSWFPERDEYVAHMKKEHGKSVKKFPCRLCERSFCSAPSLRRHVRVNHEGIKRVYPCRYCTEGKRTFSSRLILEKHVQVRHGLQLGAQSPGRGTTLARGSSARAQGPGRKRRQSSDSCSEEPDSTTPPAKSPRGGPGSGGHGPLRYRSSSSTEQSLMMGLRVEDGAQQCLDCGLCFASPGSLSRHRFISHKKRRGVGKASALGLGDGEEEAPPSRSDPDGGDSPLPASGGPLTCKVCGKSCDSPLNLKTHFRTHGMAFIRARQGAVGDN

The target of the first assay is FUS::DDIT3 (human (endogenous in MLS 402-91)). Kind of assay: affinity purification with mass spectrometry; DDIT3 IP (pulls down FUS::DDIT3): biotinylated DDIT3 antibody on streptavidin magnetic beads, 50 µg nuclear extract of MLS 402-91 cells, 150 mM KCl, 10 mM Tris pH 7.5, overnight at 4 °C; TMT quantitative mass spectrometry; hits > 1.5-fold over the IgG control.
On to B1, for which the binding result is “binds”. The same measure, in the same setting: to B2 belongs “binds”; to B3, “binds”. For the molecule B4, the binding result is recorded as “binds”. For the molecule B5, the binding result is “binds”.

A further assay concerns the target BRG1 (human (endogenous in MLS 402-91 and EWS TC-71)) (UniProt P51532). Kind of assay: affinity purification with mass spectrometry; BRG1 IP: biotinylated BRG1 antibody on streptavidin magnetic beads, 50 µg nuclear extract of MLS 402-91 or of EWS TC-71 cells, 150 mM KCl, 10 mM Tris pH 7.5, overnight at 4 °C; TMT quantitative mass spectrometry; hits > 1.5-fold over the IgG control.
With B1, the binding entry is recorded as “binds”.

On to B2, for which the binding entry is reported as “binds”. On the same count and under the same terms, to B3 belongs “binds”.

For B6, the binding result was “binds”.

Consider B7, for which the binding entry is “binds”. As for B4, the binding result is “binds”.

Turning to B5, the binding result is recorded as “binds”.
